According to US20220175893A1, “COMBINATIONS OF TANNASE AND PROBIOTIC FORMULATIONS AND METHODS OF USE FOR IMPROVING TANNIN METABOLISM” (THE TEXAS A&M UNIVERSITY SYSTEM, priority 2019, published 2022):
For some assays here: For at least one compound, name, drawing or mass did not settle the structure. Some results were stated once for a whole list of compounds, not compound by compound.

Key:
[1] = biological target: T1, Tannase sourced from Aspergillus oryzae (Aspergillus oryzae, UniProt P78581); experiment: Tannase (10^−3 U/mL) hydrolysis of galloyl glycosides, LC-MS; assay type: biochemical; conditions: hydrolysis of pentagalloyl glucose
T1 construct: purchased
Description: Standards solutions of monogalloyl glucose, pentagalloyl glucose, and a gallotannin isolate were incubated with tannase at 10^−3 U/mL to characterize the by-products and relative rates of galloyl derivative hydrolysis. 250 μL of 200 ppm monogalloyl glucose or pentagalloyl glucose were incubated with 650 μL of buffer set to the enzyme's optimum conditions (pH 5.5, 0.1 M citric acid buffer, 30° C.), and 100 μL of tannase 10^−3 U/mL for final standard concentrations of 50 ppm. […] Experiments were performed in a static water bath and prepared in triplicate for each time point at 0, 0.016, 0.033, 0.050, 0.083, 0.167, 0.5, 1, 1.5, 2, 3, 4 h. To end enzymatic activity, solutions were immediately diluted with 1000 μL 0.1% formic acid MeOH. Lastly, samples were filtered with a 0.45 μm syringe filter prior to LC-MS analysis.
Galloyl derivatives were characterized and quantified by use of LC-MS on a Thermo Finnigan HPLC. Separations were in reversed-phase using a Finnigan Surveyor HPLC coupled to a Surveyor PDA detector and gradient separations were performed using a Phenomenex Kinetex™ (Bannockburn, II) C18 column, (150×4.6 mm, 2.6 μm) at room temperature. Injections were made into the column by use of a 50 μL sample loop. […] A gradient was run of 0% Phase B for 2 min and changed to 10% Phase B in 4 min, 10% Phase B was held to 10 min, 10 to 40% Phase B in 25 min, and 40% to 65% Phase B in 35 min, 65% to 85% Phase B in 41 min, 85% was held to 49 min before returning to initial conditions. The electrospray interface worked in negative ionization mode. Source and capillary temperatures were set at 325° C., source voltage was 4.0 kV, capillary voltage was set at −47 V, and collision energy for MS/MS analysis was set at 35 eV. The instrument operated with sheath gas and auxiliary gas (N2) flow rates set at 10 units/min and 5 units/min, respectively. The instrument was tuned specifically for pentagalloyl glucose. […] Digalloyl glucoses, and trigalloyl glucoses were quantified at 280 nm and reported as equivalents of monogalloyl glucose. Tetragalloyl glucose and higher were quantified and reported as pentagalloyl glucose equivalents.
Tannase sourced from Aspergillus oryzae was incubated with standard solutions of monogalloyl glucose, pentagalloyl glucose, and a gallotannin isolate sourced from mango in an effort to characterize and quantify the intermediates formed during hydrolysis. […] Characterization of the different galloyl derivatives that can be formed during tannase hydrolysis is critical as they are likely to have different bio efficacies.

tannase = biological target: T2, tannase (Aspergillus oryzae, UniProt P78581); experiment: Tannase (20 U/mL) hydrolysis to free gallic acid, rhodanine assay; assay type: biochemical; conditions: 20 U/mL tannase, pH 5.5
T2 construct: purchased
T2 sequence (P78581 19-588): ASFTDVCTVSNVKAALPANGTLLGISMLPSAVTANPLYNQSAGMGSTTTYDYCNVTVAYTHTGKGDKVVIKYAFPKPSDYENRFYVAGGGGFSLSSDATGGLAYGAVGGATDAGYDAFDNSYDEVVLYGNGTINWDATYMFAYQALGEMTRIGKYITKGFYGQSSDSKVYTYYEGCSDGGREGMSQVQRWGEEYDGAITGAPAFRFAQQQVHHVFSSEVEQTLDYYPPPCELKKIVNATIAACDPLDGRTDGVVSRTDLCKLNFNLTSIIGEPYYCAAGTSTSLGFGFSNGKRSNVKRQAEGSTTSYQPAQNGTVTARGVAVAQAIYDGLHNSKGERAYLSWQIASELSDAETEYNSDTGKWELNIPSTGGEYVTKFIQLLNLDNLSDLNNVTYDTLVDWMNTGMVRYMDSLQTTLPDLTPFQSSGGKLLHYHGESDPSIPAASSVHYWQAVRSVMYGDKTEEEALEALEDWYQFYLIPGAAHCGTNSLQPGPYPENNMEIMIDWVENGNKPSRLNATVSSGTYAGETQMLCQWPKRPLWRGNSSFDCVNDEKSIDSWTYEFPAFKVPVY
Description: 200 uL of 641±16 and 2051±46 ppm GAE gallotannin isolate was aliquotted into test tubes and made up to 1 mL with 20 U/mL tannase hydrated in pH 5.5, 0.1 M citrate buffer. Samples were incubated for 0, 0.16 (10 min), 0.5, 1, 2, 4, 6, 12, and 24 h at 35° C. in a static water bath. After each time point had elapsed, 1 mL of 0.1% formic acid MeOH was added to each test tube. 50 and 100 ppm monogalloyl glucose was also treated with tannase under the same conditions. The total pro-gallic acid content of the gallotannin isolate and monogalloyl glucose were quantified by the colorimetric rhodanine assay modified from Inoue & Hagerman (1988). 600 μL of 0.667% rhodanine in methanol was added to 400 μL of hydrolyzed tannin fraction sample. After 10 min, 400 μL of 0.5 M NaOH was added to develop color for 20 min until bringing the final volume to 10 mL with deionized water. Absorbance was measured at 520 nm.

Compound | combined tetragalloyl glucoses, share of total galloyl glycosides content (maximum) ([1]; 0.5 h) [%] | combined tetragalloyl glucoses, share of total galloyl glycosides content ([1]; 2 h) [%] | digalloyl glucoses, share of total galloyl glycosides content ([1]; 2 h) [%] | trigalloyl glucoses, share of total galloyl glycosides content ([1]; 2 h) [%] | time to complete hydrolysis by tannase (tannase) [h]
O=C(OC[C@H]1O[C@@H](OC(=O)c2cc(O)c(O)c(O)c2)[C@H](OC(=O)c2cc(O)c(O)c(O)c2)[C@@H](OC(=O)c2cc(O)c(O)c(O)c2)[C@@H]1OC(=O)c1cc(O)c(O)c(O)c1)c1cc(O)c(O)c(O)c1 [pentagalloyl glucose] | 49.2±2.22 | 13.8±0.68 | 10.4±0.65 | 73.7±1.92 | –
monogalloyl glucose | – | – | – | – | ≤ 1
